# Measurements reported in the supplement of paper PMC8728848.
# The list shows a part of the results.
# B1: B3GalT2 (Rattus norvegicus) (protein)
# chain: LMLQWRRRHCCFAKMSWNAKRSLFRTHLMGVLSLVFLFAMFLFFNHHDWLPGRPGFKENPVTYTFRGFRSTKTETNQSSLRNIWKEVVPQTLRPQTATNSNNTELSPQGVTGLENTLSANGSIYNEKGTGHPNSYHFKYIINEPEKCQEKSPFLILLIAAEPGQIEARRAIRQTWGNETLAPGIQITRIFLLGISIKLNGYLQHAIQEESIQYHDIIQQEYLDTYYNLTIKTLMGMNWVATYCPHTPYVMKTDSDMFVNTEYLIHKLLKPDLPPRHNYFTGYLMRGYAPNRNKDSKWYMPPDLYPSERYPVFCSGTGYVFSGDLAEKIFKVSLGIRRLHLEDVYVGICLAKLRVDPVPPPNEFVFNHWRVSYSSCKYSHLITSHQFQPSELIKYWNHLQQNKHNACVNAAKEKAGRYRHRKLH
# Key:
# Experiment in all cases: glycan array binding signal (z-score within array); higher = stronger binding
# Conditions in all cases: glycan notation: IUPAC condensed, linker removed
# Neu5Ac(a2-8)Neu5Ac = target: Neu5Ac(a2-8)Neu5Ac
# How it was run: (§1)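 Glycan array data were curated from 3228 arrays in the Consortium for Functional Glycomics database and kept only where the protein sequence was available. Glycan names were converted to IUPAC-condensed notation, and columns mapping to the same glycan were averaged. The binding signal is a within-array Z-score, averaged across arrays of the same protein sequence at different concentrations or buffers and across linkers. Negative Z-scores can be read as non-binding.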
# [1] = target: Neu5Ac(a2-8)Neu5Ac(a2-3)Gal(b1-3)GalNAc(b1-4)[Neu5Ac(a2-3)]Gal(b1-4)Glc
# How it was run: as §1
# [2] = target: Neu5Ac(a2-8)Neu5Ac(a2-3)Gal(b1-3)GalNAc(b1-4)[Neu5Ac(a2-8)Neu5Ac(a2-3)]Gal(b1-4)Glc
# How it was run: as §1
# [3] = target: Neu5Ac(a2-8)Neu5Ac(a2-3)Gal(b1-4)Glc
# How it was run: as §1
# [4] = target: Neu5Ac(a2-8)Neu5Ac(a2-3)Gal(b1-4)GlcNAc
# How it was run: as §1
# [5] = target: Neu5Ac(a2-8)Neu5Ac(a2-3)[Gal(b1-3)GalNAc(b1-4)]Gal(b1-4)Glc
# How it was run: as §1
# [6] = target: Neu5Ac(a2-8)Neu5Ac(a2-3)[GalNAc(b1-4)]Gal(b1-4)Glc
# How it was run: as §1
# [7] = target: Neu5Ac(a2-8)Neu5Ac(a2-8)Neu5Ac
# How it was run: as §1
# [8] = target: Neu5Ac(a2-8)Neu5Ac(a2-8)Neu5Ac(a2-3)Gal(b1-4)Glc
# How it was run: as §1
# [9] = target: Neu5Ac(a2-8)Neu5Ac(a2-8)Neu5Ac(a2-3)[Gal(b1-3)GalNAc(b1-4)]Gal(b1-4)Glc
# How it was run: as §1
# [10] = target: Neu5Ac(a2-8)Neu5Ac(a2-8)Neu5Ac(a2-3)[GalNAc(b1-4)]Gal(b1-4)Glc
# How it was run: as §1
# [11] = target: Neu5Ac(a2-8)Neu5Ac(a2-8)Neu5Ac(a2-8)Neu5Ac(a2-3)[GalNAc(b1-4)]Gal(b1-4)Glc
# How it was run: as §1
# [12] = target: Neu5Ac(a2-8)Neu5Gc(a2-3)Gal(b1-4)GlcNAc
# How it was run: as §1
# [13] = target: Neu5Ac(b2-6)Gal(b1-4)GlcNAc
# How it was run: as §1
# Neu5Ac(b2-6)GalNAc = target: Neu5Ac(b2-6)GalNAc
# How it was run: as §1
# [14] = target: Neu5Ac9Ac(a2-3)Gal(b1-3)GlcNAc
# How it was run: as §1
# [15] = target: Neu5Ac9Ac(a2-3)Gal(b1-4)GlcNAc
# How it was run: as §1
# [16] = target: Neu5Ac9Ac(a2-6)Gal(b1-4)GlcNAc
# How it was run: as §1
# [17] = target: Neu5Gc(a2-3)Gal(b1-3)GlcNAc
# How it was run: as §1
# [18] = target: Neu5Gc(a2-3)Gal(b1-3)[Fuc(a1-4)]GlcNAc
# How it was run: as §1
# Neu5Gc(a2-3)Gal(b1-4)Glc = target: Neu5Gc(a2-3)Gal(b1-4)Glc
# How it was run: as §1
# [19] = target: Neu5Gc(a2-3)Gal(b1-4)GlcNAc
# How it was run: as §1
# [20] = target: Neu5Gc(a2-3)Gal(b1-4)GlcNAc(b1-3)Gal(b1-4)GlcNAc(b1-2)Man(a1-3)[Neu5Gc(a2-3)Gal(b1-4)GlcNAc(b1-3)Gal(b1-4)GlcNAc(b1-2)Man(a1-6)]Man(b1-4)GlcNAc(b1-4)GlcNAc
# How it was run: as §1
# [21] = target: Neu5Gc(a2-3)Gal(b1-4)[Fuc(a1-3)]GlcNAc
# How it was run: as §1
# [22] = target: Neu5Gc(a2-6)Gal(b1-4)GlcNAc
# How it was run: as §1
# Neu5Gc(a2-6)GalNAc = target: Neu5Gc(a2-6)GalNAc
# How it was run: as §1
# [23] = target: Neu5Gc(a2-8)Neu5Ac(a2-3)Gal(b1-4)GlcNAc
# How it was run: as §1
# [24] = target: Neu5Gc(a2-8)Neu5Gc(a2-3)Gal(b1-4)GlcNAc
# How it was run: as §1
# [25] = target: Neu5Gc(a2-8)Neu5Gc(a2-3)Gal(b1-4)GlcNAc(b1-3)Gal(b1-4)GlcNAc
# How it was run: as §1
# [26] = target: Neu5Gc(a2-8)Neu5Gc(a2-6)Gal(b1-4)GlcNAc
# How it was run: as §1
# [27] = target: Neu5Gc(b2-6)Gal(b1-4)GlcNAc
# How it was run: as §1
binder,measurement,setting,value
B1,glycan array binding signal (z-score),Neu5Ac(a2-8)Neu5Ac,0.408
same,glycan array binding signal (z-score),[1],0.781
same,glycan array binding signal (z-score),[2],-0.446
same,glycan array binding signal (z-score),[3],-0.919
same,glycan array binding signal (z-score),[4],1.28
same,glycan array binding signal (z-score),[5],0.167
same,glycan array binding signal (z-score),[6],0.406
same,glycan array binding signal (z-score),[7],1.37
same,glycan array binding signal (z-score),[8],0.472
same,glycan array binding signal (z-score),[9],0.932
same,glycan array binding signal (z-score),[10],-0.726
same,glycan array binding signal (z-score),[11],0.208
same,glycan array binding signal (z-score),[12],0.021
same,glycan array binding signal (z-score),[13],-0.66
same,glycan array binding signal (z-score),Neu5Ac(b2-6)GalNAc,0.607
same,glycan array binding signal (z-score),[14],0.245
same,glycan array binding signal (z-score),[15],0.724
same,glycan array binding signal (z-score),[16],1.57
same,glycan array binding signal (z-score),[17],0.899
same,glycan array binding signal (z-score),[18],0.464
same,glycan array binding signal (z-score),Neu5Gc(a2-3)Gal(b1-4)Glc,-0.536
same,glycan array binding signal (z-score),[19],-0.077
same,glycan array binding signal (z-score),[20],-0.845
same,glycan array binding signal (z-score),[21],-0.164
same,glycan array binding signal (z-score),[22],-0.599
same,glycan array binding signal (z-score),Neu5Gc(a2-6)GalNAc,-0.326
same,glycan array binding signal (z-score),[23],-0.333
same,glycan array binding signal (z-score),[24],-0.457
same,glycan array binding signal (z-score),[25],0.701
same,glycan array binding signal (z-score),[26],0.689
same,glycan array binding signal (z-score),[27],0.124

# Reformatted bar-delimited: part of the list above
binder | measurement | setting | value
B1 | glycan array binding signal (z-score) | [22] | -0.599
same | glycan array binding signal (z-score) | Neu5Gc(a2-6)GalNAc | -0.326
